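A panel of P. falciparum strains inside erythrocytes is exposed to compounds for three days, then a DNA-binding dye reports the amount of parasite DNA. Each compound was titrated across a series from about 0.000037 to 29 µM. The number is the fitted AC50, the concentration giving a half-maximal change in signal; a lower value means higher potency, whether the curve shows a decrease or an increase. Calls follow the curve class and fit quality: every row here is inconclusive, covering signal-raising curves and weak, poorly fitted, partial or highest-dose-only inhibition curves.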

Values are in µM. All entries here are filed as inconclusive. Only part of the assay is shown, chiefly results filed as inconclusive. A potency from a partial, single-point or poor curve is only a rough figure. Some entries filed as inconclusive have a full curve. The first word of each remark tells which way the curve ran; it can be opposite to the aim of the assay.

Compound | setting | Potency (µM) | curve
CNC(=O)Oc1cccc2ccccc12 | PC15 | 17.78 | inhibitor, single point
CNC(=O)Oc1cccc2ccccc12 | GB4 | 21.33 | inhibitor, partial curve, poor fit
CNC(=O)Oc1cccc2ccccc12 | CP315 | 4.776 | inhibitor, single point
CNC(=O)Oc1cccc2ccccc12 | PAD | 15.85 | inhibitor, single point
CNC(=O)Oc1cccc2ccccc12 | 7G8 | 10 | inhibitor, single point
CCCCCCCCCCOCC(O)CN (centres unmarked) | AA1029 | 11.22 | inhibitor, single point
CCCCCCCCCCOCC(O)CN (centres unmarked) | W2 | 13.46 | inhibitor, single point
CCCCCCCCCCOCC(O)CN (centres unmarked) | parasite line B | 11.22 | inhibitor, single point
CCCCCCCCCCOCC(O)CN (centres unmarked) | CP252 | 8.912 | inhibitor, single point
CCCCCCCCCCOCC(O)CN (centres unmarked) | TAB165 | 8.912 | inhibitor, partial curve, poor fit
CCCCCCCCCCOCC(O)CN (centres unmarked) | PC49 | 11.22 | inhibitor, single point
CCCCCCCCCCOCC(O)CN (centres unmarked) | CP194 | 13.46 | inhibitor, single point
CCCCCCCCCCOCC(O)CN (centres unmarked) | CP286 | 8.912 | inhibitor, partial curve
O=C1Nc2ccc(Cl)cc2C(c2ccccc2Cl)=NC1O (centres unmarked) | CP215 | 21.33 | inhibitor, single point
O=C1Nc2ccc(Cl)cc2C(c2ccccc2Cl)=NC1O (centres unmarked) | CP262 | 15.1 | activator, single point
O=C1Nc2ccc(Cl)cc2C(c2ccccc2Cl)=NC1O (centres unmarked) | P94_40 | 11.22 | inhibitor, single point
O=C1Nc2ccc(Cl)cc2C(c2ccccc2Cl)=NC1O (centres unmarked) | ATS95 | 17.78 | inhibitor, single point
O=C1Nc2ccc(Cl)cc2C(c2ccccc2Cl)=NC1O (centres unmarked) | PAD | 17.78 | inhibitor, single point
O=C1Nc2ccc(Cl)cc2C(c2ccccc2Cl)=NC1O (centres unmarked) | P93_24 | 3.981 | inhibitor, single point
CCCNC(C)(C)COC(=O)c1ccccc1 | W2 | 0.0054 | activator
CCCNC(C)(C)COC(=O)c1ccccc1 | CP335 | 0.0095 | activator
CCCNC(C)(C)COC(=O)c1ccccc1 | PC26 | 21.33 | inhibitor, partial curve, poor fit
CCCNC(C)(C)COC(=O)c1ccccc1 | CP203 | 6.746 | inhibitor, partial curve, poor fit
CCCNC(C)(C)COC(=O)c1ccccc1 | GB4 | 10.69 | inhibitor, partial curve, poor fit
CNC1CCCN(c2c(F)cc3c(=O)c(C(=O)O)cn(C4CC4)c3c2OC)C1 (centres unmarked) | CP266 | 0.0019 | activator
CNC1CCCN(c2c(F)cc3c(=O)c(C(=O)O)cn(C4CC4)c3c2OC)C1 (centres unmarked) | W2 | 0.0027 | inhibitor, full curve
CNC1CCCN(c2c(F)cc3c(=O)c(C(=O)O)cn(C4CC4)c3c2OC)C1 (centres unmarked) | CP247 | 2.512 | inhibitor, single point
Fc1ccc(C(c2ccc(F)cc2)N2CCN(CC=Cc3ccccc3)CC2)cc1 | CP297 | 19.01 | inhibitor, single point
Fc1ccc(C(c2ccc(F)cc2)N2CCN(CC=Cc3ccccc3)CC2)cc1 | CP215 | 19.01 | inhibitor, single point
Fc1ccc(C(c2ccc(F)cc2)N2CCN(CC=Cc3ccccc3)CC2)cc1 | CP211 | 16.94 | inhibitor, single point
Fc1ccc(C(c2ccc(F)cc2)N2CCN(CC=Cc3ccccc3)CC2)cc1 | CP203 | 16.94 | inhibitor, single point
Fc1ccc(C(c2ccc(F)cc2)N2CCN(CC=Cc3ccccc3)CC2)cc1 | CP268 | 12 | inhibitor, single point
Fc1ccc(C(c2ccc(F)cc2)N2CCN(CC=Cc3ccccc3)CC2)cc1 | CP201 | 16.94 | inhibitor, single point
Fc1ccc(C(c2ccc(F)cc2)N2CCN(CC=Cc3ccccc3)CC2)cc1 | CP325 | 16.94 | inhibitor, single point
Fc1ccc(C(c2ccc(F)cc2)N2CCN(CC=Cc3ccccc3)CC2)cc1 | CP291 | 16.94 | inhibitor, single point
Fc1ccc(C(c2ccc(F)cc2)N2CCN(CC=Cc3ccccc3)CC2)cc1 | PC26 | 12 | inhibitor, single point
Fc1ccc(C(c2ccc(F)cc2)N2CCN(CC=Cc3ccccc3)CC2)cc1 | CP329 | 19.01 | inhibitor, single point

Repeated from the top, 4 entries:

* CNC(=O)Oc1cccc2ccccc12 [PC15] | Potency 17.78 µM (inhibitor, single point)
* CNC(=O)Oc1cccc2ccccc12 [GB4] | Potency 21.33 µM (inhibitor, partial curve, poor fit)
* CNC(=O)Oc1cccc2ccccc12 [CP315] | Potency 4.776 µM (inhibitor, single point)
* CNC(=O)Oc1cccc2ccccc12 [PAD] | Potency 15.85 µM (inhibitor, single point)

Source: PubChem BioAssay AID504749 (NCATS, 2011).